# In patent US10624948B2, “Use of cell-permeable peptide inhibitors of the JNK signal transduction pathway for the treatment of various diseases” (Xigen Inflammation Ltd., priority 2013, dated 2020):
# Part of at least one peptide drawing is inferred or uncertain, most often the ends.
# Tests used:
# [1] = tested on: endogenous JNK activity in HepG2 cells; test: AlphaScreen endogenous JNK activity, all-in one well approach; format: cell-based; details: FIG. 3 panel d
# [2] = tested on: rats, Adriamycin (ADR)-induced nephropathy; test: Adriamycin-induced nephropathy; format: in vivo, rat; details: for histopathology (PAS, Masson trichrome): 2 mg/kg
# [3] = tested on: HCT 116 human colon tumor; test: Orthotopic HCT 116 human colon tumors in SCID mice; format: in vivo; details: PO 0.1 mg/kg
# Protocol: The objective of this study was to determine the effect of XG-102 on the growth of HCT 116 human colon tumor orthotopically xenografted in SCID mice.
# For XG-102 administration the required amount of XG-102 was dissolved in the vehicle. The formulation was prepared according to the procedure detailed below. Concentrations were calculated and expressed taking into account test item purity and peptide content (multiplier coefficient was 74.6%). […] Diluted solutions were maintained on ice until use. Unused material was discarded. XG-102 was injected once daily at 0.1 and 1 mg/kg/inj. for a total of fourteen consecutive administrations (Q1D×14). The routes of substance administrations were: injected subcutaneously (SC) at 5 ml/kg/inj., administered per os (PO) to mice by oral gavage via a canula at 5 ml/kg/adm. The injection and administration volumes were adapted, according to the daily individual body weight of mice.
# Twenty four to Forty-eight hours before tumor induction, 5 SCID mice were irradiated with a γ-source (1.8 Gy, Co^60, INRA, Dijon, France). Ten millions (10^7) HCT 116 cells suspended in 200 μl of RPMI medium were subcutaneously injected in the right flank of the 5 female SCJD mice. When tumors reached 1000-2000 mm^3, mice were sacrificed. […]
# Mice were sacrificed at D26. […] Invasion of liver by tumor nodules was evaluated macroscopically. […]
smiles,measurement,setting,value
CC(C)C[C@@H](NC(=O)[C@@H](Cc1ccccc1)NC(=O)[C@H]1CCCN1C(=O)[C@@H](CCC(N)=O)NC(=O)[C@H](NC(=O)[C@H]1CCCN1C(=O)[C@@H](CCCNC(=N)N)NC(=O)[C@@H](CO)NC(=O)[C@@H](CCC(N)=O)NC(=O)[C@H](N)CC(=O)O)C(C)C)C(=O)N[C@H](CC(N)=O)C(=O)N[C@H](CC(C)C)C(=O)N[C@@H](C(=O)N[C@@H](C(=O)N1CCC[C@@H]1C(=O)N[C@H](CCCNC(=N)N)C(=O)N[C@H](CCCCN)C(=O)N1CCC[C@@H]1C(=O)N[C@H](CCCNC(=N)N)C(=O)N1CCC[C@@H]1C(=O)N1CCC[C@@H]1C(=O)N[C@H](CCCNC(=N)N)C(=O)N[C@H](CCCNC(=N)N)C(=O)N[C@H](CCCNC(=N)N)C(=O)N[C@H](CCC(N)=O)C(=O)N[C@H](CCCNC(=N)N)C(=O)N[C@H](CCCNC(=N)N)C(=O)N[C@H](CCCCN)C(=O)N[C@H](CCCCN)C(=O)N[C@H](CCCNC(=N)N)C(=O)NCC(=O)O)[C@H](C)O)[C@H](C)O [XG-102],inhibition of IL-1 dependent endogenous JNK activity,[1],"effectively inhibits JNK activity, even better than L-TAT-IB1(s)"
same,"histopathology (PAS, Masson trichrome)",[2]; Day 8,relatively normal appearance at Day 8
same,"histopathology (PAS, Masson trichrome)",[2]; Day 56,few focal and segmental glomerulosclerosis and tubulointerstitial fibrosis at Day 56
same,c-jun expression in kidney (staining),[2]; 8 and 14 days after onset,significant reduction of c-jun expression in the interstitium
same,histology of adriamycin-induced nephropathy,"[2]; 20, 200, 2000 μg/kg i.v., day 8, 14, 29 and 41",a significantly positive effect on adriamycin-induced nephropathy
same,mean liver weight at D26,[3],0.91 ± 0.17 g
